The text below walks through data of article PMC10244405.

This experiment has as its target T1, AGE receptor 1 (human (endogenous in LO2)) (UniProt P39656).
T1 sequence: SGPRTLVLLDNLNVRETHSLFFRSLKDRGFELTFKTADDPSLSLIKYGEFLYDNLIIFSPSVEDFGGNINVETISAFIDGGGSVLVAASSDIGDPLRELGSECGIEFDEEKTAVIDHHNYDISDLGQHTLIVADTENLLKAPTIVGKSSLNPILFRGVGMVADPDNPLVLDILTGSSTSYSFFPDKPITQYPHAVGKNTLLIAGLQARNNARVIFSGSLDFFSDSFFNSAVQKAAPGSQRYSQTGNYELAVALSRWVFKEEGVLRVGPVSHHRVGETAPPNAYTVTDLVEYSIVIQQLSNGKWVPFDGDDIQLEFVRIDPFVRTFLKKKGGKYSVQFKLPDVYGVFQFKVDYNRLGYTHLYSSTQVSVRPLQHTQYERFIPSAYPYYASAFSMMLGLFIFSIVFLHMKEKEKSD
The experiment in a line: co-IP; antibody against AGER1 (or rabbit IgG) on Protein A/G magnetic beads; lysate of LO2 cells incubated with PA and high glucose, RIPA buffer with PMSF and protease inhibitors; rotation overnight at 4 °C; SDS-PAGE and immunoblotting.

These are yes or no findings as the source states them, for the method shown. Binding seen in cells or lysates may run through a third protein. Some binding calls cover weakened binding; strength is not graded here.

B1: sirtuin 4 (protein, UniProt Q9Y6E7 29-314)
chain: IGLFVPASPPLDPEKVKELQRFITLSKRLLVMTGAGISTESGIPDYRSEKVGLYARTDRRPIQHGDFVRSAPIRQRYWARNFVGWPQFSSHQPNPAHWALSTWEKLGKLYWLVTQNVDALHTKAGSRRLTELHGCMDRVLCLDCGEQTPRGVLQERFQVLNPTWSAEAHGLAPDGDVFLSEEQVRSFQVPTCVQCGGHLKPDVVFFGDTVNPDKVDFVHKRVKEADSLLVVGSSLQVYSGYRFILTAWEKKLPIAILNIGPTRSDDLACLKLNSRCGELLPLIDPC
As to B1, the binding result was “binds”.
